# Data published in patent US20190211317A1, “PEPTIDES AND NANOPARTICLES FOR INTRACELLULAR DELIVERY OF GENOME-EDITING MOLECULES” (Aadigen, LLC, priority 2016, published 2019).
# Some of these results come from one statement about several compounds together. Non-standard residues stand in square brackets, D forms with d. Residues, ends and D or L forms follow the SMILES beside them. βAla = NCCC(=O)O
# Key:
# [1] = system: EGFP-U2OS, EGFP-HEK, EGFP-JURKAT cells; test: Toxicity of CPP/CAS9/gRNA complexes (MTT assay); format: cell-based; settings: 200 nM
# Experimental: The robust EGFP disruption observed in the three cell lines was found not to be the result of cellular toxicity. […] A total of 30,000 cells seeded in 24-well plates the day prior to transfection were incubated with increasing concentrations of CPP/CAS9/gRNA (complexed at a 10:1 or 20:1 molar ratio of CPP to preloaded CAS9/gRNA complex) ranging from 1 to 200 nM for 30 min prior to addition of medium to reach a final 10% concentration of FCS. Cytotoxic response was measured 24 hours later by colorimetric MTT assay (Sigma, Germany). For MTT assay, cell culture medium was removed and replaced with PBS containing 2.5 mg/ml MTT for 4 hours. Results correspond to the average of 3 separate experiments. […] Viability was reduced by less than 10% at 200 nM. In contrast, at […] for Lipofectamine 2000 or RNAiMAX, between 60-70% and 20-25% cell death was observed, depending on cell line. Moreover, both lipid methods appeared to be highly toxic on JURKAT cells, inducing 75% (lipofectamine 2000) or 45% (RNAiMAX) cell death.
# primary human T cells = test: Toxicity of CPP cargo complexes in primary human T cells (MTT assay)
# JURKAT and K562 cells = test: Toxicity of CPP/CAS9/gRNA complexes in T cell lines (MTT assay); format: cell-based, human; settings: 200 nM
# Experimental: A total of 30,000 JURKAT or K562 cells seeded in 24-well plates the day prior to transfection were incubated with increasing concentrations of CPP/CAS9/gRNA complexed at 20:1 molar ratio (CPP to CAS9/gRNA) ranging from 1 nM to 200 nM for 30 min prior to addition of medium to reach a final 10% concentration of FCS. Cytotoxic response was measured 24 hours later by colorimetric MTT assay (Sigma, Germany). For MTT assay, cell culture medium was removed and replaced with PBS containing 2.5 mg/ml of MTT for 4 hours. Results correspond to the average of 3 independent experiments.
# [2] = system: U2OS, HEPG2, K562 cell lines and human primary fibroblasts; test: Toxicity of CPP/CAS9 mRNA/gRNA complexes (MTT assay); format: cell-based; settings: four cell types
# [3] = system: endogenous EMX1, AAVS and HPRT genes in Mouse (ESF-158) embryonic stem cells; test: Delivery of multiple RGEN:gRNA complexes: EMX1, AAVS, HPRT editing in mouse ES cells (T7E1); format: cell-based; settings: three genes, 20 nM
# [4] = system: endogenous EMX1, AAVS and HPRT genes in U2OS and Human (H9) embryonic stem cells; test: Delivery of multiple RGEN:gRNA complexes: EMX1, AAVS, HPRT editing in U2OS and H9 ES cells (T7E1); format: cell-based; settings: 20 nM
# [5] = system: endogenous EMX1 gene in primary human T cells; test: EMX1 editing in primary human T cells with CAS9 mRNA, protein or plasmid plus gRNA (T7E1); format: cell-based
# [6] = system: endogenous EMX1 gene in U2OS, HEPG2, K562 cells and primary human fibroblasts; test: EMX1 editing from CPP delivery of CAS9 mRNA/gRNA (T7E1); format: cell-based
smiles,measurement,setting,value
CC(C)C[C@H](NC(=O)[C@H](CCCNC(=N)N)NC(=O)[C@H](Cc1c[nH]c2ccccc12)NC(=O)[C@H](CCCNC(=N)N)NC(=O)[C@H](Cc1c[nH]c2ccccc12)NC(=O)CNC(=O)[C@H](C)NC(=O)[C@H](CO)NC(=O)[C@H](CCCNC(=N)N)NC(=O)[C@H](Cc1c[nH]c2ccccc12)NC(=O)[C@H](CCCCN)NC(=O)CCN)C(=O)N[C@@H](Cc1c[nH]c2ccccc12)C(=O)N[C@@H](CCCNC(=N)N)C(=O)N[C@H](C(=O)N[C@@H](CCCNC(=N)N)C(=O)N[C@@H](CO)C(=O)N[C@@H](Cc1c[nH]c2ccccc12)C(=O)N[C@@H](CO)C(=O)N[C@@H](CCCNC(=N)N)C(=O)O)C(C)C [ADGN-100a],reduction of viability,[1],less than 10%
same,toxicity,primary human T cells,less than 10%
same,reduction of viability,JURKAT and K562 cells,less than 10%
same,toxicity,[2],less than 10%
N=C(N)NCCC[C@H](NC(=O)[C@H](CCCNC(=N)N)NC(=O)[C@H](CCCCN)NC(=O)[C@H](CCCNC(=N)N)NC(=O)[C@@H]1CCCN1C(=O)[C@H](Cc1c[nH]c2ccccc12)NC(=O)[C@H](CCC(=O)O)NC(=O)[C@H](CCCNC(=N)N)NC(=O)[C@H](Cc1ccccc1)NC(=O)[C@H](Cc1c[nH]c2ccccc12)NC(=O)[C@H](CCCNC(=N)N)NC(=O)[C@H](CCC(=O)O)NC(=O)[C@H](Cc1ccccc1)NC(=O)[C@H](Cc1c[nH]c2ccccc12)NC(=O)[C@H](CCCCN)NC(=O)CCN)C(=O)O [VEPEP-3a],toxicity,primary human T cells,less than 10%
same,reduction of viability,JURKAT and K562 cells,less than 10%
N=C(N)NCCC[C@H](NC(=O)[C@H](CCCNC(=N)N)NC(=O)[C@H](CCCCN)NC(=O)[C@H](CCCNC(=N)N)NC(=O)[C@@H]1CCCN1C(=O)[C@H](Cc1c[nH]c2ccccc12)NC(=O)[C@H](CCC(=O)O)NC(=O)[C@H](CCCNC(=N)N)NC(=O)[C@H](Cc1c[nH]c2ccccc12)NC(=O)[C@H](Cc1c[nH]c2ccccc12)NC(=O)[C@H](CCCNC(=N)N)NC(=O)[C@H](CCC(=O)O)NC(=O)[C@H](Cc1c[nH]c2ccccc12)NC(=O)[C@H](Cc1c[nH]c2ccccc12)NC(=O)[C@H](CCCCN)NC(=O)CCN)C(=O)O [VEPEP-3b],mean indel frequencies,[3],more than 70%
same,reduction of viability,[1],less than 10%
same,mean indel frequencies,[4]; H9 cells,more than 60%
same,mean indel frequencies,"[4]; three genes, U2OS",more than 70%
CC(C)C[C@H](NC(=O)CCN)C(=O)N[C@@H](Cc1c[nH]c2ccccc12)C(=O)N[C@@H](CCCNC(=N)N)C(=O)N[C@@H](C)C(=O)N[C@@H](CC(C)C)C(=O)N[C@@H](Cc1c[nH]c2ccccc12)C(=O)N[C@@H](CCCNC(=N)N)C(=O)N[C@@H](CC(C)C)C(=O)N[C@@H](Cc1c[nH]c2ccccc12)C(=O)N[C@@H](CCCNC(=N)N)C(=O)N[C@@H](CO)C(=O)N[C@@H](CC(C)C)C(=O)N[C@@H](Cc1c[nH]c2ccccc12)C(=O)N[C@@H](CCCNC(=N)N)C(=O)N[C@@H](CC(C)C)C(=O)N[C@@H](CC(C)C)C(=O)N[C@@H](Cc1c[nH]c2ccccc12)C(=O)N[C@@H](CCCCN)C(=O)N[C@@H](C)C(=O)O [VEPEP-6] (H-[βAla]LWRALWRLWRSLWRLLWKA-OH; N-terminus and C-terminus assumed),mean indel frequencies,[5],60-65%
same,mean indel frequencies,[6],70-80%
same,toxicity,primary human T cells,less than 10%
same,toxicity,[2],less than 10%
CC(C)C[C@H](NC(=O)CCN)C(=O)N[C@@H](CCCNC(=N)N)C(=O)N[C@@H](Cc1c[nH]c2ccccc12)C(=O)N[C@@H](Cc1c[nH]c2ccccc12)C(=O)N[C@@H](CC(C)C)C(=O)N[C@@H](CCCNC(=N)N)C(=O)N[C@@H](Cc1c[nH]c2ccccc12)C(=O)N[C@@H](C)C(=O)N[C@@H](CO)C(=O)N[C@@H](CCCNC(=N)N)C(=O)N[C@@H](Cc1c[nH]c2ccccc12)C(=O)N[C@@H](Cc1ccccc1)C(=O)N[C@@H](CO)C(=O)N[C@@H](CCCNC(=N)N)C(=O)N[C@@H](Cc1c[nH]c2ccccc12)C(=O)N[C@@H](C)C(=O)N[C@@H](Cc1c[nH]c2ccccc12)C(=O)N[C@@H](Cc1c[nH]c2ccccc12)C(=O)N[C@@H](CCCNC(=N)N)C(=O)O [VEPEP-9],toxicity,primary human T cells,less than 10%
